Results on five molecules are retold here after patent US20210221847A1.

Protein sequences, listed by entry. Tags and fused reporters are not part of them. Residues count along the entry.
UniProt P06733, residues 2-434: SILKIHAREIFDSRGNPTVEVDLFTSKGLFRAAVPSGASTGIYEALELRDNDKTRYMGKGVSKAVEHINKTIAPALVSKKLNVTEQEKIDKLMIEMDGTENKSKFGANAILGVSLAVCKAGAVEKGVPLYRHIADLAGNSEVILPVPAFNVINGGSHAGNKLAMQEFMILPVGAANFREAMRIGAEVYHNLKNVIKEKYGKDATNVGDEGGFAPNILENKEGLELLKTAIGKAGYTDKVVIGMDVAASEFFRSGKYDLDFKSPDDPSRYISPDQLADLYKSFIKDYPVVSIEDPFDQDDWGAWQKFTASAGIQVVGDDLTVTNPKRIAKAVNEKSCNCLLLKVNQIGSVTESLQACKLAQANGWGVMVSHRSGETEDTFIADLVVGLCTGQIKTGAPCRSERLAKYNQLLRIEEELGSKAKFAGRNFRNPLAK

The target of the test is ENO1 (α-enolase) (human (rheumatoid arthritis patient)) (UniProt P06733). The experiment in a line: peptide micro array.

Results are given in words; binding and its absence hold for the method and conditions named. Some entries that bind do so weakly or less than the wild type.

B1: apoB100 #3 (peptide)
peptide: SYKNKYGMVAQV
Take B1: the binding entry was “binds”.

B2: apoB100 #5 (peptide)
peptide: TKKMGLAFESTK
On to B2, for which the binding entry is given as “binds”.

B3: apoB100 #2 (peptide)
peptide: CKEQHLFLPFSY
As to B3, the binding result is “binds”.

B4: apoB100 #4 (peptide)
peptide: KNKYGMVAQVTQ
As to B4, the binding entry is “binds”.

B5: apoB100 #1 (peptide)
peptide: AICKEQHLFLPF
Take B5: the binding entry is recorded as “binds”.
